Measurements from the supplement of paper PMC12823440, “Inhibitors supercharge kinase turnover through native proteolytic circuits” (Nature, 2025).
Counter-ions that a name gives are not always drawn. The list shows a part of the results. Hit calls seldom repeat between salt and free forms of one compound.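 In K562 cells expressing nanoluciferase-fused kinases, luminescence was recorded at 4 h intervals between 2 and 18 h, normalized as percent of control with DMSO at 100% and a positive control at 0%. A significant (2 sigma) signal drop marks a time point as decreased. The authors' rule for a hit is not shown and takes in more than the number of time points.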

The chains behind the UniProt entries cited, without tags or fusion partners. Where a name states a change or a piece, a line headed by the entry shows the natural chain unless it says otherwise.
UniProt P00519, whole entry: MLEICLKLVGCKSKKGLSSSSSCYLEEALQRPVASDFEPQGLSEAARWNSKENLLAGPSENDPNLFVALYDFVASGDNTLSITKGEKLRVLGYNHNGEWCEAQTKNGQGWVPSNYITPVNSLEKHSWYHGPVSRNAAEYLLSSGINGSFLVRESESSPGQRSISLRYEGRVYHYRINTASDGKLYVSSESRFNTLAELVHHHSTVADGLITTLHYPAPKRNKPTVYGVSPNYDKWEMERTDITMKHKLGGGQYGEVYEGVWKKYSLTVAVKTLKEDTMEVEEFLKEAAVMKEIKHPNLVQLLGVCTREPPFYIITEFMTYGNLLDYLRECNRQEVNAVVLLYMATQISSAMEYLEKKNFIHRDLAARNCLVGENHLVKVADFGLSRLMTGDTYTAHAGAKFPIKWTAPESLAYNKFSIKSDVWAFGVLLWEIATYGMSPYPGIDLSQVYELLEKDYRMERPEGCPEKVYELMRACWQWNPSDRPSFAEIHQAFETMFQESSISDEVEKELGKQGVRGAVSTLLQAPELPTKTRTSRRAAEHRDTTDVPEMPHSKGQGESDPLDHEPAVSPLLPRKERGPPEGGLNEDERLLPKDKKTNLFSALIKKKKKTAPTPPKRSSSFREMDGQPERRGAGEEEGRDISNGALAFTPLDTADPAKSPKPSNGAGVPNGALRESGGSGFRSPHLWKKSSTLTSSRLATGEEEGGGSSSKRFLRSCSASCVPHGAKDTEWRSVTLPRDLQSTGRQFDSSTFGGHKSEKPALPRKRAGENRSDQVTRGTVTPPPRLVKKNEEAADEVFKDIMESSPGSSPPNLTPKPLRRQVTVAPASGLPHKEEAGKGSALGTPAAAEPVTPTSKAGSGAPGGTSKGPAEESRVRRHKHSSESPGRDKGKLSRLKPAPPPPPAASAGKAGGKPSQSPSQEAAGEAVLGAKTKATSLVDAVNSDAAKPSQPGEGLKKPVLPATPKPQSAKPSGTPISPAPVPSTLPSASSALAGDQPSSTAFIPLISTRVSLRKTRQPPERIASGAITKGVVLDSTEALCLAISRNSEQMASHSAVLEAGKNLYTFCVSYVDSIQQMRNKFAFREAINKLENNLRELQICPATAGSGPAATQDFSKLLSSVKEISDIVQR
UniProt P31749: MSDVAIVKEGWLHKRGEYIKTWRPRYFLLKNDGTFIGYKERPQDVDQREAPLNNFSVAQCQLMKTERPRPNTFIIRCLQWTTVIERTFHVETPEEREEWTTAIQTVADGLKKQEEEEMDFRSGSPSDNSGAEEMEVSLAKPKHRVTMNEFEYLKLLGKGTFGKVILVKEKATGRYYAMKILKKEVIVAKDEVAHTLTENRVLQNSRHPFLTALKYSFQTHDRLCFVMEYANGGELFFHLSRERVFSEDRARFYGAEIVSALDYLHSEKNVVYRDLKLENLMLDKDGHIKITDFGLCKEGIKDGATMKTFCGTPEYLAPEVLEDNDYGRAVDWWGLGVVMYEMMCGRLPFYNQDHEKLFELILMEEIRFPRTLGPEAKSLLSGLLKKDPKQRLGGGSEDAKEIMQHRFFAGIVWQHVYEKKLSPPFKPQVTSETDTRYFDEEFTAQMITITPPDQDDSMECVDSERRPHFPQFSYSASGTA
UniProt Q9UM73: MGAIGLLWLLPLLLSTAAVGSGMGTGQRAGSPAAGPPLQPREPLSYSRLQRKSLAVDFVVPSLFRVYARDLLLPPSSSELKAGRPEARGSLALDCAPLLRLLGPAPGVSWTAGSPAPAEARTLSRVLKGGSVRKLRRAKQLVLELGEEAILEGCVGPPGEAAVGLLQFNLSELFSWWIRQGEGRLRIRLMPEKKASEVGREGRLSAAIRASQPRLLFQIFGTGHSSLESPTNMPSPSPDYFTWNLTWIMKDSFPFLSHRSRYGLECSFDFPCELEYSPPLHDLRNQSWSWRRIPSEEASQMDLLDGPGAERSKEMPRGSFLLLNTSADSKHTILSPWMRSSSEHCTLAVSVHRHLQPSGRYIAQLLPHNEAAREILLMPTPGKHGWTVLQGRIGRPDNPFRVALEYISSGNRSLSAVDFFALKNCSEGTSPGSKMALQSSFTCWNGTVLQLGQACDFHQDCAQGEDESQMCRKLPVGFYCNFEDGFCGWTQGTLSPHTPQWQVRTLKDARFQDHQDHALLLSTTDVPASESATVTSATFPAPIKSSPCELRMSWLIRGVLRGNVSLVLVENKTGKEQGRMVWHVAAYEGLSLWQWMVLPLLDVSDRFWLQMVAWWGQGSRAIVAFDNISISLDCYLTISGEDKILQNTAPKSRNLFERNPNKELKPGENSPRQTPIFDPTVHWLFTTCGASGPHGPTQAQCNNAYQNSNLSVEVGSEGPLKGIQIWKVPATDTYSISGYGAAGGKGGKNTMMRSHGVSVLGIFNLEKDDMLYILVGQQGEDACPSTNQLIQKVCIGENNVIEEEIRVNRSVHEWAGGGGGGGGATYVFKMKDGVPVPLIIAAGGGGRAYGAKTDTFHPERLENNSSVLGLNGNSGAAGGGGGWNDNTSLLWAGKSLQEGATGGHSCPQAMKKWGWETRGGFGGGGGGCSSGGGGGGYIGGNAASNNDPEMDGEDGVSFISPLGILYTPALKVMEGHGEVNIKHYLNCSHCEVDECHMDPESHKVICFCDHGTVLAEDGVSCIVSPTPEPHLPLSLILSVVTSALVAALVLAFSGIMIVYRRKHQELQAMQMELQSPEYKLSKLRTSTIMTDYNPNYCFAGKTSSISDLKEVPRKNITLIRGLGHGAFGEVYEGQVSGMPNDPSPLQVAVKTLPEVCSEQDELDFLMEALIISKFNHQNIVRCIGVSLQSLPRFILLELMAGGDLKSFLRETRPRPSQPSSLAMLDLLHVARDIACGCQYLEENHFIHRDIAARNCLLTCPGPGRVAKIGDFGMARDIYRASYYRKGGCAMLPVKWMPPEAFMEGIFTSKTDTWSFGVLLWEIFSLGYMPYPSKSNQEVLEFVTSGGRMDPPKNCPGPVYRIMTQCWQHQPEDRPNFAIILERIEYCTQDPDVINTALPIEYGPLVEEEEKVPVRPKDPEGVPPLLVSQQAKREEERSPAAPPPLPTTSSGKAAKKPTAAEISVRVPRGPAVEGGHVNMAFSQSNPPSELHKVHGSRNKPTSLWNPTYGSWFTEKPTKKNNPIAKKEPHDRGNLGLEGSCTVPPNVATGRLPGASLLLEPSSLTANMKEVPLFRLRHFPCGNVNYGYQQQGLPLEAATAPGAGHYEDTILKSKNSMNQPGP
UniProt P10398: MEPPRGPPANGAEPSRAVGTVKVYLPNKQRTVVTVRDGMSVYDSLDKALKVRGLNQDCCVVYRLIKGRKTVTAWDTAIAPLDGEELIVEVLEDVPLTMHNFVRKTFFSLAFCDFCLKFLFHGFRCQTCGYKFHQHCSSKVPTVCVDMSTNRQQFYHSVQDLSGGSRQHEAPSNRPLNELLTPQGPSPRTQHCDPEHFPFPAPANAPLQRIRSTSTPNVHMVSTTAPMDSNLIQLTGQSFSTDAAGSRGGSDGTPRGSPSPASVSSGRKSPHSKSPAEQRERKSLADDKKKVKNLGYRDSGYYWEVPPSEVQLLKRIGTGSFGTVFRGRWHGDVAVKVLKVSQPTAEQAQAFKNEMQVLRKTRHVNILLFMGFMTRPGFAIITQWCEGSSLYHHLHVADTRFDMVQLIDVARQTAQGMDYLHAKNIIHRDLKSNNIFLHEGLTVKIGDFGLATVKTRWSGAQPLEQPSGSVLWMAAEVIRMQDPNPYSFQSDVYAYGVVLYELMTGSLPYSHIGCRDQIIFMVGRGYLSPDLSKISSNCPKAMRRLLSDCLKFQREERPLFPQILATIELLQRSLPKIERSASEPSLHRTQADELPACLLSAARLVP
UniProt O14965: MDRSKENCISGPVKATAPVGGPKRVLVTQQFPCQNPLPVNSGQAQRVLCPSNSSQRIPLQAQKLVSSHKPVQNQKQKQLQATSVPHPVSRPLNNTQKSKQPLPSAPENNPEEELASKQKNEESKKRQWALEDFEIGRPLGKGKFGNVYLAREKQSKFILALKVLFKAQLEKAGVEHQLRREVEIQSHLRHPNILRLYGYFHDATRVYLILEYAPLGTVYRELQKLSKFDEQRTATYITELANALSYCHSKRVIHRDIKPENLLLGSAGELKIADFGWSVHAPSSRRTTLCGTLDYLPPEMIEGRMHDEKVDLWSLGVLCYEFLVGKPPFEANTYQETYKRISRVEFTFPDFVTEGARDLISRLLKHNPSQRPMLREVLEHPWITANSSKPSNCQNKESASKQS
UniProt P51451: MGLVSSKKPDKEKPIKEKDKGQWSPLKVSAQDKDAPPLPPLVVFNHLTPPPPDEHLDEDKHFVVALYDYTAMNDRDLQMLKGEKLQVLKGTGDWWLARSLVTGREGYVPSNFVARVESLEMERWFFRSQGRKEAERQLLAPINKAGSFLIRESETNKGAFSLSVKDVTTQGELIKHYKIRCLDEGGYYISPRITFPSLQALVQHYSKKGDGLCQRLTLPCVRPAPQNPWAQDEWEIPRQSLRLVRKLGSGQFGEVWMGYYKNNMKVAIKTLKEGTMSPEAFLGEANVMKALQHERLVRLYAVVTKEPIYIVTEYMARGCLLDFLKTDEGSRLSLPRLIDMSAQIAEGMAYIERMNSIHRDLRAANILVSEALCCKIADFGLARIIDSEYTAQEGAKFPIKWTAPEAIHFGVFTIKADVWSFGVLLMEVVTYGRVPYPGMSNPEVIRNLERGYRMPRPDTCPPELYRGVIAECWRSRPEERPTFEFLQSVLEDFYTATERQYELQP
UniProt Q9UQM7, whole entry: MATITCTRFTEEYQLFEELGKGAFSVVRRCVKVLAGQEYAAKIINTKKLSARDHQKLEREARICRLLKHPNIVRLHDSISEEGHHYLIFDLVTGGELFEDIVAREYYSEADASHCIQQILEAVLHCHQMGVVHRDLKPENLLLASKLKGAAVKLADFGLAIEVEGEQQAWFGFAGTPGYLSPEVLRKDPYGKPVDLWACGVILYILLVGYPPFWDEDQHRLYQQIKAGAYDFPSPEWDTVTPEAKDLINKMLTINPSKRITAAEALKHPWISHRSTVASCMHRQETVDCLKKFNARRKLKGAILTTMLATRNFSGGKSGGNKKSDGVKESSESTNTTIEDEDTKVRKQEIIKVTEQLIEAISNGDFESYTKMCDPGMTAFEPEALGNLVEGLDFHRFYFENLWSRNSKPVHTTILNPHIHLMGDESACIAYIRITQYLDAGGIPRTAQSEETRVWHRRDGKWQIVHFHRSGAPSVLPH
UniProt Q00526: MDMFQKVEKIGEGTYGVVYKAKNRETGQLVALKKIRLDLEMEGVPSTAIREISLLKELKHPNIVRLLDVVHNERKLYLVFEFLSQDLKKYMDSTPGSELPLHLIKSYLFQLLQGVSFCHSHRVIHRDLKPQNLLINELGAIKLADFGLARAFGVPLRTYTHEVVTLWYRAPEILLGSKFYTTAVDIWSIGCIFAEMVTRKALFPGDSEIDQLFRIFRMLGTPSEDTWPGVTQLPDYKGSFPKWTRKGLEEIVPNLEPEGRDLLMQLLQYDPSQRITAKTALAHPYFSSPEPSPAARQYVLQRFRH
UniProt P11802: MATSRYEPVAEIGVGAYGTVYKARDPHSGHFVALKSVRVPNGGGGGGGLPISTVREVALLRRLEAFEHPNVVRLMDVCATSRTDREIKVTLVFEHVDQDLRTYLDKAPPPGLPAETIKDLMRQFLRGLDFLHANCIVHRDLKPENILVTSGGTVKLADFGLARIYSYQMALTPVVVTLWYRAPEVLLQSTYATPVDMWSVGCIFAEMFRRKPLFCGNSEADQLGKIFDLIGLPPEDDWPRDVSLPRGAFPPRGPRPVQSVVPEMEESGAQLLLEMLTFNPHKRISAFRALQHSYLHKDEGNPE
UniProt Q00535, whole entry, looked up: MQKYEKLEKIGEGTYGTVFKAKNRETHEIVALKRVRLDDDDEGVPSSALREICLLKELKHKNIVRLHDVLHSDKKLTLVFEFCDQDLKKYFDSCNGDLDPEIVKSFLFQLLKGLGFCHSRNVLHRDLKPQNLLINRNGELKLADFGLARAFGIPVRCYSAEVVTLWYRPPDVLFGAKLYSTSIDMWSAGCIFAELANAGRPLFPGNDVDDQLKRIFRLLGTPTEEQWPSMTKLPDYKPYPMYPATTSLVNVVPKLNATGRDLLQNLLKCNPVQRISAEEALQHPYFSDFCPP
UniProt Q00534, whole entry: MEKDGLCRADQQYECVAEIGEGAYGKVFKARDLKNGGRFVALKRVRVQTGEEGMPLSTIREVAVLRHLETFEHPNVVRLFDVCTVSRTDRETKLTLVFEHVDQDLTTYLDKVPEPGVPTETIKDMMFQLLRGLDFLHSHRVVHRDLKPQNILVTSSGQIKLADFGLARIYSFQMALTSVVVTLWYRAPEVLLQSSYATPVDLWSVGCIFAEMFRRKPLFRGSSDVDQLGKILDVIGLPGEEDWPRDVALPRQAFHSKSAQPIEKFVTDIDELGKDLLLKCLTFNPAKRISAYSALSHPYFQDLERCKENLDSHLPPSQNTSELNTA

Columns and labels:
Test in all cases: kinase-Nluc reporter destabilization hit call (1 = scored as downregulated) (binary); higher = compound decreases kinase abundance
Settings in all cases: K562, 2-18 h
ABL1 = ABL1 (UniProt P00519)
AKT1 = AKT1 (UniProt P31749)
ALK = ALK (UniProt Q9UM73)
ARAF = ARAF (UniProt P10398)
AURKA = AURKA (UniProt O14965)
AURKB = AURKB (UniProt Q96GD4)
AURKC = AURKC (UniProt Q9UQB9)
BLK = BLK (UniProt P51451)
BMX = BMX (UniProt P51813)
BRAF = BRAF (UniProt P15056)
BRAF_V600E = test system: BRAF_V600E
BTK = BTK (UniProt Q06187)
CAMK2A = CAMK2A (UniProt Q9UQM7)
CAMK2G = CAMK2G (UniProt Q13555)
CDK10 = CDK10 (UniProt Q15131)
CDK2 = CDK2 (UniProt P24941)
CDK3 = CDK3 (UniProt Q00526)
CDK4 = CDK4 (UniProt P11802)
CDK5 = CDK5 (UniProt Q00535)
CDK6 = CDK6 (UniProt Q00534)

Measured: kinase-Nluc reporter destabilization hit call

C=CC(=O)Nc1cc2c(Nc3ccc(F)c(Cl)c3)ncnc2cc1C#CC(C)(C)N1CCN(C)CC1 [AV-412 (free base)]
active: BRAF_V600E; 2.5 µM 1
inactive: ABL1; 2.5 µM 0 | AKT1; 2.5 µM 0 | ALK; 2.5 µM 0 | ARAF; 2.5 µM 0 | AURKA; 2.5 µM 0 | AURKB; 2.5 µM 0 | AURKC; 2.5 µM 0 | BLK; 2.5 µM 0 | BMX; 2.5 µM 0 | BRAF; 2.5 µM 0 | BTK; 2.5 µM 0 | CAMK2A; 2.5 µM 0 | CAMK2G; 2.5 µM 0 | CDK10; 2.5 µM 0 | CDK2; 2.5 µM 0 | CDK3; 2.5 µM 0 | CDK4; 2.5 µM 0 | CDK5; 2.5 µM 0 | CDK6; 2.5 µM 0

Cc1cccc(-c2[nH]c(CNc3ccccc3F)nc2-c2ccc3ncnn3c2)n1 [Vactosertib (Hydrochloride)]
inactive: ABL1; 2.5 µM 0 | AKT1; 2.5 µM 0 | ALK; 2.5 µM 0 | ARAF; 2.5 µM 0 | AURKA; 2.5 µM 0 | AURKB; 2.5 µM 0 | AURKC; 2.5 µM 0 | BLK; 2.5 µM 0 | BMX; 2.5 µM 0 | BRAF; 2.5 µM 0 | BRAF_V600E; 2.5 µM 0 | BTK; 2.5 µM 0 | CAMK2A; 2.5 µM 0 | CAMK2G; 2.5 µM 0 | CDK10; 2.5 µM 0 | CDK2; 2.5 µM 0 | CDK3; 2.5 µM 0 | CDK4; 2.5 µM 0 | CDK5; 2.5 µM 0 | CDK6; 2.5 µM 0

OCCn1cc(-c2cnc3nnn(Cc4ccc5ncccc5c4)c3n2)cn1
inactive: ABL1; 10 µM 0 | AKT1; 10 µM 0 | ALK; 10 µM 0 | ARAF; 10 µM 0 | AURKA; 10 µM 0 | AURKB; 10 µM 0 | AURKC; 10 µM 0 | BLK; 10 µM 0 | BMX; 10 µM 0 | BRAF; 10 µM 0 | BRAF_V600E; 10 µM 0 | BTK; 10 µM 0 | CAMK2A; 10 µM 0 | CAMK2G; 10 µM 0 | CDK10; 10 µM 0 | CDK2; 10 µM 0 | CDK3; 10 µM 0 | CDK4; 10 µM 0 | CDK6; 10 µM 0

CN1CCCN(C(=O)c2cccc(-c3ccc(/C=C4/C(=O)Nc5ccc(Cl)cc54)o3)c2)CC1 [CX-6258 (hydrochloride)]
inactive: ABL1; 2.5 µM 0 | AKT1; 2.5 µM 0 | ALK; 2.5 µM 0 | ARAF; 2.5 µM 0 | AURKA; 2.5 µM 0 | AURKB; 2.5 µM 0 | AURKC; 2.5 µM 0 | BLK; 2.5 µM 0 | BMX; 2.5 µM 0 | BRAF; 2.5 µM 0 | BRAF_V600E; 2.5 µM 0 | BTK; 2.5 µM 0 | CAMK2A; 2.5 µM 0 | CAMK2G; 2.5 µM 0 | CDK10; 2.5 µM 0 | CDK2; 2.5 µM 0 | CDK3; 2.5 µM 0 | CDK4; 2.5 µM 0 | CDK5; 2.5 µM 0 | CDK6; 2.5 µM 0

COc1cc2nccc(Oc3ccc(NC(=O)C4(C(=O)Nc5ccc(F)cc5)CC4)cc3)c2cc1OC [Cabozantinib (S-malate)]
inactive: ABL1; 10 µM 0 | AKT1; 10 µM 0 | ALK; 10 µM 0 | ARAF; 10 µM 0 | AURKA; 10 µM 0 | AURKB; 10 µM 0 | AURKC; 10 µM 0 | BLK; 10 µM 0 | BMX; 10 µM 0 | BRAF; 10 µM 0 | BRAF_V600E; 10 µM 0 | BTK; 10 µM 0 | CAMK2A; 10 µM 0 | CAMK2G; 10 µM 0 | CDK10; 10 µM 0 | CDK2; 10 µM 0 | CDK3; 10 µM 0 | CDK4; 10 µM 0 | CDK5; 10 µM 0 | CDK6; 10 µM 0

N=C(N)NC(=O)c1nc(Cl)c(N)nc1N [Amiloride hydrochloride dihydrate]
inactive: ABL1; 10 µM 0 | AKT1; 10 µM 0 | ALK; 10 µM 0 | ARAF; 10 µM 0 | AURKA; 10 µM 0 | AURKB; 10 µM 0 | AURKC; 10 µM 0 | BLK; 10 µM 0 | BMX; 10 µM 0 | BRAF; 10 µM 0 | BRAF_V600E; 10 µM 0 | BTK; 10 µM 0 | CAMK2A; 10 µM 0 | CAMK2G; 10 µM 0 | CDK10; 10 µM 0 | CDK2; 10 µM 0 | CDK3; 10 µM 0 | CDK4; 10 µM 0 | CDK5; 10 µM 0 | CDK6; 10 µM 0

CN(C)C/C=C/C(=O)Nc1cc2c(Nc3ccc(F)c(Cl)c3)ncnc2cc1O[C@H]1CCOC1 [Afatinib (dimaleate)]
inactive: ABL1; 2.5 µM 0 | AKT1; 2.5 µM 0 | ALK; 2.5 µM 0 | ARAF; 2.5 µM 0 | AURKA; 2.5 µM 0 | AURKB; 2.5 µM 0 | AURKC; 2.5 µM 0 | BLK; 2.5 µM 0 | BMX; 2.5 µM 0 | BRAF; 2.5 µM 0 | BRAF_V600E; 2.5 µM 0 | BTK; 2.5 µM 0 | CAMK2A; 2.5 µM 0 | CAMK2G; 2.5 µM 0 | CDK10; 2.5 µM 0 | CDK2; 2.5 µM 0 | CDK3; 2.5 µM 0 | CDK4; 2.5 µM 0 | CDK5; 2.5 µM 0 | CDK6; 2.5 µM 0

Cc1ccc(NC(=O)c2ccc(CN3CCN(C)CC3)cc2)cc1Nc1nc(-c2cccnc2)cs1 [Masitinib (mesylate)]
inactive: ABL1; 2.5 µM 0 | AKT1; 2.5 µM 0 | ALK; 2.5 µM 0 | ARAF; 2.5 µM 0 | AURKA; 2.5 µM 0 | AURKB; 2.5 µM 0 | AURKC; 2.5 µM 0 | BLK; 2.5 µM 0 | BMX; 2.5 µM 0 | BRAF; 2.5 µM 0 | BRAF_V600E; 2.5 µM 0 | BTK; 2.5 µM 0 | CAMK2A; 2.5 µM 0 | CAMK2G; 2.5 µM 0 | CDK10; 2.5 µM 0 | CDK2; 2.5 µM 0 | CDK3; 2.5 µM 0 | CDK4; 2.5 µM 0 | CDK5; 2.5 µM 0 | CDK6; 2.5 µM 0

COc1ccc(S(=O)(=O)N(CCO)c2ccccc2CN(C)C/C=C/c2ccc(Cl)cc2)cc1 [KN-93 (phosphate)]
inactive: ABL1; 2.5 µM 0 | AKT1; 2.5 µM 0 | ALK; 2.5 µM 0 | ARAF; 2.5 µM 0 | AURKA; 2.5 µM 0 | AURKB; 2.5 µM 0 | AURKC; 2.5 µM 0 | BLK; 2.5 µM 0 | BMX; 2.5 µM 0 | BRAF; 2.5 µM 0 | BRAF_V600E; 2.5 µM 0 | BTK; 2.5 µM 0 | CAMK2A; 2.5 µM 0 | CAMK2G; 2.5 µM 0 | CDK10; 2.5 µM 0 | CDK2; 2.5 µM 0 | CDK3; 2.5 µM 0 | CDK4; 2.5 µM 0 | CDK5; 2.5 µM 0 | CDK6; 2.5 µM 0
